Consider one sequence from PMC8467918.

Chains of the proteins cited; added tags and fusions are not shown. Lines headed by an entry give the natural chain unless they say otherwise; changes in a name come on top.
UniProt Q04609: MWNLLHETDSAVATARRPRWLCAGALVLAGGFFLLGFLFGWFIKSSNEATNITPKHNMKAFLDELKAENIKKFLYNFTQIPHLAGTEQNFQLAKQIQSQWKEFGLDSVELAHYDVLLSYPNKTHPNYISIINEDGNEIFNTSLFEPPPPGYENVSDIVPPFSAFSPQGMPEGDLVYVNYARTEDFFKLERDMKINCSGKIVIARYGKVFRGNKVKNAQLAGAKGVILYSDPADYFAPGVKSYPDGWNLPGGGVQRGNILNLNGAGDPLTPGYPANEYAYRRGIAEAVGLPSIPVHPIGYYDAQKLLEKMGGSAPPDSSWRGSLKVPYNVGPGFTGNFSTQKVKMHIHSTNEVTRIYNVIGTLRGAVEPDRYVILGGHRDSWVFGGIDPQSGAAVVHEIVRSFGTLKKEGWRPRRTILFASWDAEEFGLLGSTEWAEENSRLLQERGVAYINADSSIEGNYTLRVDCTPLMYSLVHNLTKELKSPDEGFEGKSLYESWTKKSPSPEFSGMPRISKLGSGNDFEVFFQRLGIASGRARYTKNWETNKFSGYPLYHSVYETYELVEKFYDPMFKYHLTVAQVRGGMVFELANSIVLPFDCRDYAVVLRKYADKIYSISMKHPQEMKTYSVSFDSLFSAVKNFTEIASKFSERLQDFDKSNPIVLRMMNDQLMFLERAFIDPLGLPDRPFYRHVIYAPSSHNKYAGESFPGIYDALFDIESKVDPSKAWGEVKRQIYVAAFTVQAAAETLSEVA

The exact form of at least one protein or probe is not confirmed. At least one verdict rests on a figure or table, not on a statement of the authors.

For the series, the target named is PSMA (prostate-specific membrane antigen) on plasma small extracellular vesicles (UniProt Q04609). Nature of the series: pull-down of Vibrant-DiI-labelled SEVs on aptamer beads, flow cytometry. The settings on record: no-aptamer azide beads as negative control, binding to whole vesicles, not isolated PSMA; 5'-DBCO, clicked to azide magnetic beads; Bead functionalization: 1 ug SPMB in 100 uL PBS, 1 pM aptamer, 10% DMSO, RT, 3 h; native protein; single-stranded DNA. Background: A flow cytometer gives signals particle by particle.

For “GAATTCGCGTTTTCGCTTTTGCGTTTTGGGTCATCTGCTTACGATAGCAATGCT [PSMA-Apt]”, the binding result is “binds”.
